Source: publication PMC3302888, “Small-Animal PET Imaging of Amyloid-Beta Plaques with [^11C]PiB and Its Multi-Modal Validation in an APP/PS1 Mouse Model of Alzheimer's Disease” (PLoS ONE, 2012)
Where “and” joins values, the source holds several entries; their conditions need not be identical. Equal entries are not always repeated.

System: Aβ plaques
Test: Histological quantification of relative Aβ plaque burden with Thioflavin S
Set-up: species or system mouse

Thioflavin S
Plaque load based on Thioflavin S binding in neocortex (ctl-old): 0.61±0.17% | average cerebellar binding of Thioflavin S (ctl-old): 0.66±0.13% | Histology % plaque area neocortex (individual animals AD1, AD2 (tgtg-young)): 4.00% and 4.10% | Histology % plaque area neocortex (individual animals CTL1, CTL2 (ctl-young)): 0.54% and 0.41% | Plaque load based on Thioflavin S binding in neocortex (tg-old): 7.72±1.03% | average cerebellar binding of Thioflavin S (tg-old): 0.36±0.05% | Plaque load based on Thioflavin S binding in neocortex (tgtg-old): 11.78±1.63% | average cerebellar binding of Thioflavin S (tgtg-old): 0.30±0.04% | Plaque load based on Thioflavin S binding in neocortex (tgtg-young): 4.68±0.70% | average cerebellar binding of Thioflavin S (tgtg-young): 0.25±0.06%
